This is an account of results in the supplement of paper PMC10727501.

Conditions in all cases: 10 µM; pre-incubation: 30-90 min
Experiment [1] relates to Danio rerio larvae (5 dpf, TLF). As to the kind of experiment: OMR-Perf (SSMD vs DMSO vehicle); higher = higher than vehicle (e.g. higher dark-flash O-bend response probability, or better optomotor performance).
For experiment [2] the test system is unchanged. Briefly: Prob-Test (SSMD vs DMSO vehicle); higher = higher than vehicle (e.g. higher dark-flash O-bend response probability, or better optomotor performance).
The test system is the same in experiment [3]. Briefly: Prob-Naive (SSMD vs DMSO vehicle); higher = higher than vehicle (e.g. higher dark-flash O-bend response probability, or better optomotor performance).
The test system is the same in experiment [4]. Briefly: Prob-Train (SSMD vs DMSO vehicle); higher = higher than vehicle (e.g. higher dark-flash O-bend response probability, or better optomotor performance).

The list shows a part of the results. This data set is noisy: repeats of one test often differ as much as different tests do.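 Free-swimming zebrafish larvae were assessed for O-bend response probability to dark flashes (naive: first five; training: remaining flashes across four 60-flash blocks; test: later 60-flash block) and for OMR turning toward alternating leftward/rightward LED motion. Six treated larvae were compared against sixty 0.1% DMSO controls; hits required |SSMD|≥2.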

With `O=c1cccc2n1C[C@@H]1CNC[C@H]2C1` [Cytisine], the OMR-Perf in experiment [1] is 0.504. In experiment [2], the Prob-Test was found to be 0.484. Besides, in experiment [3], the Prob-Naive was found to be 0.0956. In experiment [4], this molecule yielded a Prob-Train of 0.551.
In turn, `c1cc2c(cc1[C@H]1OC[C@H]3[C@H]1CO[C@@H]3c1ccc3c(c1)OCO3)OCO2` [Sesamin] returned an OMR-Perf in experiment [1] of -1.04. Further, in experiment [2], the Prob-Test was -1.95. This molecule also came in with a Prob-Naive in experiment [3] of -2.91. In experiment [4], this molecule yielded a Prob-Train of -2.93.
The molecule `Nc1nc(N)nc(NC2CC2)n1` [Cyromazine] gave an OMR-Perf in experiment [1] of -0.218. Further, the Prob-Test in experiment [2] came to 0.156. This molecule also had a Prob-Naive in experiment [3] of -0.34. The molecule further had a Prob-Train in experiment [4] of -0.126.
As to `CC(=O)Nc1ccc(OC[C@](C)(O)C(=O)Nc2ccc([N+](=O)[O-])c(C(F)(F)F)c2)cc1` [Andarine], the OMR-Perf in experiment [1] is -0.277. The molecule also had a Prob-Test in experiment [2] of -0.015. This molecule displayed a Prob-Naive in experiment [3] of 0.515. This molecule had a Prob-Train in experiment [4] of 0.383.
For `CN1CCCCC1Cn1cc(C(=O)c2cc([N+](=O)[O-])ccc2I)c2ccccc21` (stereo not given), in experiment [1], the OMR-Perf was -0.695. In addition, in experiment [2], the Prob-Test is -1.15. The Prob-Naive in experiment [3] is -0.027. In addition, in experiment [4], the Prob-Train was -0.799.
For the molecule `Cc1cc(O)ccc1Cl` [Chlorocresol], in experiment [1], the OMR-Perf came to 0.55. This molecule also displayed a Prob-Test in experiment [2] of -0.244. Besides, the Prob-Naive in experiment [3] is -0.596. The Prob-Train in experiment [4] is -1.14.
For `N#CC(C#N)=Cc1ccc(O)c(O)c1`, in experiment [1], the OMR-Perf worked out at 0.0714. In experiment [2], this molecule returned a Prob-Test of -0.454. In addition, the Prob-Naive in experiment [3] stood at 0.135. In addition, the Prob-Train in experiment [4] was determined as 0.202.
Consider `O=C(Oc1ccc([N+](=O)[O-])cc1)N1CCC(C(O)(c2ccc3c(c2)OCO3)c2ccc3c(c2)OCO3)CC1`, for which, in experiment [1], the OMR-Perf turned out to be 0.537. In experiment [2], the Prob-Test was 0.268. The molecule also yielded a Prob-Naive in experiment [3] of 0.0849. The molecule further came in with a Prob-Train in experiment [4] of 0.154.
`CCNCC.O=S(=O)(O)c1cc(O)ccc1O` [Ethamsylate] registered an OMR-Perf in experiment [1] of 0.155. The same molecule returned a Prob-Test in experiment [2] of -0.504. In experiment [3], the Prob-Naive was -0.0384. The same molecule displayed a Prob-Train in experiment [4] of -0.496.
As to `Cc1sc2c(c1C)C(c1ccc(Cl)cc1)=NC(CC(=O)Nc1ccc(O)cc1)c1nnc(C)n1-2` (stereo not given), the OMR-Perf in experiment [1] is -0.41. This molecule registered a Prob-Test in experiment [2] of -0.286. This molecule also came in with a Prob-Naive in experiment [3] of 0.587. The Prob-Train in experiment [4] was -0.363.
The matching figures for `COC1=C[C@@H]2[C@@H]3Cc4ccc(OC)c(O)c4[C@]2(CCN3C)CC1=O` [Sinomenine]: 0.0798, -0.564, -0.141 and -0.641.
Molecule `Br.COC(=O)C1=CCCN(C)C1` [Arecoline] gave an OMR-Perf in experiment [1] of -0.499. Besides, in experiment [2], the Prob-Test was 0.484. The molecule further had a Prob-Naive in experiment [3] of 0.374. This molecule displayed a Prob-Train in experiment [4] of 0.814.
The matching figures for `CC(O)(CS(=O)(=O)c1ccc(F)cc1)C(=O)Nc1ccc(C#N)c(C(F)(F)F)c1` (stereo not given) [Bicalutamide]: -0.213, -0.0391, 0.0155 and 0.134.
The matching figures for `Cc1sc2c(c1C)C(c1ccc(Cl)cc1)=N[C@H](CC(=O)OC(C)(C)C)c1nnc(C)n1-2`: 0.0104, 0.00472, -2.44 and -1.1.
For the molecule `CC[N+]1(C)CCCC(OC(=O)C(O)(c2ccccc2)c2ccccc2)C1.[Br-]` (stereo not given) [Pipenzolate Bromide], the OMR-Perf in experiment [1] was -0.203. This molecule also showed a Prob-Test in experiment [2] of -0.66. Moreover, the Prob-Naive in experiment [3] came out at 0.457. This molecule had a Prob-Train in experiment [4] of -0.236.
The molecule `O=C(O[C@H]1C[N+]2(CCCOc3ccccc3)CCC1CC2)C(O)(c1cccs1)c1cccs1.[Br-]` [Aclidinium Bromide] returned an OMR-Perf in experiment [1] of -0.441. The Prob-Test in experiment [2] is -0.648. This molecule also registered a Prob-Naive in experiment [3] of 0.185. The Prob-Train in experiment [4] was -0.778.
As for `O=C(O)C=CC(=O)O.O=C(O)C=CC(=O)O.c1ccc2nc(N3CCNCC3)ccc2c1` [Quipazine Maleate], the OMR-Perf in experiment [1] turned out to be 0.318. Besides, the Prob-Test in experiment [2] worked out at 0.121. In experiment [3], this molecule yielded a Prob-Naive of -0.048. In experiment [4], this molecule displayed a Prob-Train of -0.0126.
On to `CN1C(=O)COc2c(C(=O)NC3CN4CCC3CC4)cc(Cl)cc21.Cl` (stereo not given), for which the OMR-Perf in experiment [1] is 0.357. For the same molecule, in experiment [2], the Prob-Test was -0.373. This molecule came in with a Prob-Naive in experiment [3] of 0.0551. Moreover, the Prob-Train in experiment [4] is -0.173.
`CCNC(=O)C[C@@H]1N=C(c2ccc(Cl)cc2)c2cc(OC)ccc2-n2c(C)nnc21` showed an OMR-Perf in experiment [1] of 0.108. The Prob-Test in experiment [2] was found to be 0.228. Besides, the Prob-Naive in experiment [3] worked out at 0.245. The molecule further came in with a Prob-Train in experiment [4] of 0.0055.
In turn, `CN(C)C(=O)C(CCN1CCC(O)(c2ccc(Cl)cc2)CC1)(c1ccccc1)c1ccccc1.Cl` [Loperamide HCl] gave an OMR-Perf in experiment [1] of 0.294. In experiment [2], this molecule yielded a Prob-Test of -0.86. This molecule also showed a Prob-Naive in experiment [3] of -0.171. In experiment [4], this molecule had a Prob-Train of -1.
As to `COc1cc2c(cc1OC)[C@@]13CCN4CC5=CCO[C@H]6CC(=O)N2[C@H]1[C@H]6[C@H]5C[C@H]43` [Brucine], the OMR-Perf in experiment [1] was -0.0963. Further, the Prob-Test in experiment [2] worked out at 0.946. Further, in experiment [3], the Prob-Naive was determined as 0.0283. Also, in experiment [4], the Prob-Train was 0.63.
Regarding `C[C@@H]1C(=O)O[C@@H]2O[C@@]3(C)CC[C@H]4[C@@H](C)CC[C@@H]1[C@@]24OO3` [Artemisinin], the OMR-Perf in experiment [1] amounted to 0.0942. The molecule further had a Prob-Test in experiment [2] of -0.0968. The same molecule gave a Prob-Naive in experiment [3] of 0.255. Also, the Prob-Train in experiment [4] is -0.00763.
Take `CC(C)(C)[C@@]1(O)C[C@@H]2OC(=O)C[C@@]23C(=O)O[C@H]2OC(=O)[C@H](O)C213` (stereo not given in full) [Bilobalide]: the OMR-Perf in experiment [1] was -0.0311. Besides, the Prob-Test in experiment [2] turned out to be 0.00519. Moreover, the Prob-Naive in experiment [3] was 0.375. In addition, the Prob-Train in experiment [4] is -0.229.
Consider `Cc1ccccc1-n1c(Cn2ncc3c(N)ncnc32)nc2cccc(C)c2c1=O`, for which the OMR-Perf in experiment [1] is -0.474. The same molecule displayed a Prob-Test in experiment [2] of -0.736. The same molecule came in with a Prob-Naive in experiment [3] of 0.285. Besides, the Prob-Train in experiment [4] was -0.00159.
In experiment [1], `Cc1ccccc1-n1c(Cn2cnc3c(N)ncnc32)nc2cccc(C)c2c1=O` returned an OMR-Perf of 0.279. In experiment [2], this molecule displayed a Prob-Test of 0.206. Besides, the Prob-Naive in experiment [3] turned out to be 0.26. In experiment [4], this molecule had a Prob-Train of -0.0433.
